Data as given in publication PMC13284301.
These are yes or no findings as the source states them, for the method shown. Binding seen in cells or lysates may run through a third protein. Some entries that bind do so weakly or less than the wild type. Tags and fused reporters may be left off the sequences shown.

Sequences of proteins named here, by UniProt entry; tags and fusion partners are left off.
UniProt P41376: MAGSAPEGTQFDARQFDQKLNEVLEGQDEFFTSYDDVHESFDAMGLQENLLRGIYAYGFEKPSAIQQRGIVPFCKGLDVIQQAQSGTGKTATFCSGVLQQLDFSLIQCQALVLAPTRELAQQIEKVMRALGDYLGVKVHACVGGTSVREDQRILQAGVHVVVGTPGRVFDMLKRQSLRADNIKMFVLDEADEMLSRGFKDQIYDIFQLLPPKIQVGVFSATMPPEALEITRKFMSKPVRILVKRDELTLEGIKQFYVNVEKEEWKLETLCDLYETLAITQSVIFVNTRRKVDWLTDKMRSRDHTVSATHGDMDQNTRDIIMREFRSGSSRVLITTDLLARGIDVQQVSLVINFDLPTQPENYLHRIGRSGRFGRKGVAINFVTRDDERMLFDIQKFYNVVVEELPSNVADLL
UniProt P41377: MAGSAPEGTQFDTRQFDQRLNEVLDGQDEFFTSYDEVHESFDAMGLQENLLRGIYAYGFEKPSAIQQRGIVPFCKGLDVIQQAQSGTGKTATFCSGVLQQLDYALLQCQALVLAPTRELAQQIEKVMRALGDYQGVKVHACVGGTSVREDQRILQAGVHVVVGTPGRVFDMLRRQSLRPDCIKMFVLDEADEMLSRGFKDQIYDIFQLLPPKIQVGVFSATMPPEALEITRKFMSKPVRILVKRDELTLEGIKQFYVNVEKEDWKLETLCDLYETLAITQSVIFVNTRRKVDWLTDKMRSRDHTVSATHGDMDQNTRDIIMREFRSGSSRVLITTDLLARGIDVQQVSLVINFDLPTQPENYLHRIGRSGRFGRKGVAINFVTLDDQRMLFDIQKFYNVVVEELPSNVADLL

What was measured:
[1] = molecular target: T1, nYFP-SMG7^Δ1-268 (Arabidopsis thaliana) (UniProt A9QM73); assay: split reporter; BiFC in transfected Arabidopsis mesophyll protoplasts, nYFP on SMG7 and cYFP on the partner, imaged by confocal microscopy after 16 h
T1 sequence: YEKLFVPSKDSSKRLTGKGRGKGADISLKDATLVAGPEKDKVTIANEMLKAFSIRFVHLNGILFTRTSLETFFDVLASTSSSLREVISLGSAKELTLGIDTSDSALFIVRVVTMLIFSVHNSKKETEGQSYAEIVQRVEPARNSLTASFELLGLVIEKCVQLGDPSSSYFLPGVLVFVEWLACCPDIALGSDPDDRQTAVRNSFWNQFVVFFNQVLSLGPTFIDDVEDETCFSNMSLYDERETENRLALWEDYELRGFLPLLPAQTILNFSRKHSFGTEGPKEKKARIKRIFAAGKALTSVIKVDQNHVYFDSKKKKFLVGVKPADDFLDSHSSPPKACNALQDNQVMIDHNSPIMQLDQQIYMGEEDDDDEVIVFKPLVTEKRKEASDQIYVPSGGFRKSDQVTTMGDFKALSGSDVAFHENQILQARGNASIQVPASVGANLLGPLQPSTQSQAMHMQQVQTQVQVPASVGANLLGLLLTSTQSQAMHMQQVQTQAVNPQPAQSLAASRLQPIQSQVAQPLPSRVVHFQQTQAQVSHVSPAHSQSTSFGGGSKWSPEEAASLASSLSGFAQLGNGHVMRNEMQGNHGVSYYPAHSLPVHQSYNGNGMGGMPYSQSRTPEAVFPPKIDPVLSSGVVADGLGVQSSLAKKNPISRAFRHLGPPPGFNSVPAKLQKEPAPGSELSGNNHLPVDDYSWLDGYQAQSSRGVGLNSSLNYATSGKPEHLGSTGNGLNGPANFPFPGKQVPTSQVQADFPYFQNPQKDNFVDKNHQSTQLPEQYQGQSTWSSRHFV

[2] = molecular target: T2, nYFP-SMG7^Δ917-1010 (Arabidopsis thaliana) (UniProt A9QM73); assay: as above
T2 sequence: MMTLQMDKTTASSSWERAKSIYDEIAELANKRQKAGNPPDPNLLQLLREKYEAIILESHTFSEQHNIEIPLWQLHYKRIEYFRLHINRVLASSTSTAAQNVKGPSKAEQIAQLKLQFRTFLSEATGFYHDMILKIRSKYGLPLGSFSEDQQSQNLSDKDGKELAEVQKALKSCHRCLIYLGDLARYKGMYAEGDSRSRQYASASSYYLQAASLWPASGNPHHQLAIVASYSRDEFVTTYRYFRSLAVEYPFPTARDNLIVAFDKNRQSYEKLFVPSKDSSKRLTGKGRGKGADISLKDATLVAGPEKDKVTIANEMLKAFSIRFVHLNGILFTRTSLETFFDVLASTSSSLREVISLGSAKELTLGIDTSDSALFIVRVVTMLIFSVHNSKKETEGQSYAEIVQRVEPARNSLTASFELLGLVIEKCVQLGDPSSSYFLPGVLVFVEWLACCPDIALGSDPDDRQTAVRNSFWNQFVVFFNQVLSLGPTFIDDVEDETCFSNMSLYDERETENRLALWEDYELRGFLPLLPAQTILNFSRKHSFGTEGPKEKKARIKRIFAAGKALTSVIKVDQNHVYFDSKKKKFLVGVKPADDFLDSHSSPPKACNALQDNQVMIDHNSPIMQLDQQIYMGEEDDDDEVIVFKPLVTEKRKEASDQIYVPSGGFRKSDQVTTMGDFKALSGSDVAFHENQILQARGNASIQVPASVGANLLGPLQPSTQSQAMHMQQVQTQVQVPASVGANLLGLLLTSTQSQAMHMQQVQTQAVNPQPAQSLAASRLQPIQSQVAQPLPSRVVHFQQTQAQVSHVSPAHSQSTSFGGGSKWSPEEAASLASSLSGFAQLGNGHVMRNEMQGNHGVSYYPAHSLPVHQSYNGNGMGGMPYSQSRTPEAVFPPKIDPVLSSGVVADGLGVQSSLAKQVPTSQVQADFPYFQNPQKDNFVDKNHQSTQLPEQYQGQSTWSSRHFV

Substance | binding [1] | binding [2]
eIF4A1-cYFP (from UniProt P41376 1-412) | no binding | binds
eIF4A2-cYFP (from UniProt P41377 1-412) | no binding | binds
